These results are taken from article PMC9054915 (Cancer Chemotherapy and Pharmacology, 2022).

The nature of the data set: MDCK permeability. Particulars: dog. The text has this:
The physiochemical and ADME parameters used for the development of the initial PBPK model are summarized Table S1. […] The volume of distribution at steady state (Vss) was obtained from the clinical absolute bioavailability study (ClinicalTrials.gov Identifier: NCT02390492). A tissue to plasma partition coefficient (Kp) scalar was applied to match the predicted Vss (predicted with in Simcyp using Method 3, Rodgers et al. + ion membrane permeability) to the observed value. The IV clearance determined in the clinical absolute bioavailability study was used (ClinicalTrials.gov Identifier: NCT02390492). […] The CYP3A4 inhibition parameters for competitive inhibition and TDI determined using in vitro assays (Data on file) were incorporated into the model.

Regarding `CC(C)NCC(O)COc1ccc(CC(N)=O)cc1` (stereo not shown) [atenolol], the apparent permeability coefficient (Papp) stood at 0.1 ×10⁻⁶ cm/s.
